# Screening data, single-dose tests

Measurements from “University of Dundee, Small-Polar-MMV Screening Library” (2021), ChEMBL document CHEMBL3988442.

Values are the deposited “Percent Effect”, in %. How 0% and 100% were set is not recorded. Most values in the screen are low, and negative values occur. Compounds were drawn at random from those tested, without regard to their results.

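Whole-parasite assay of Trypanosoma brucei over 72 hours; the read-out is not stated. Compounds at 30 µM. Direction is inferred from retests: higher values go with stronger inhibition. Values scatter widely below zero; nearly all retest evidence comes from the higher of the two concentrations used. Size under these conditions: about 64,000 compounds, about 940 of them at 50% or above in at least one test.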

{"compound": "Cc1cc(C(=O)N2CC(O)CO2)c2ccc(C)c(C)c2n1", "stereo": "centres unmarked", "effect": -14.22}
{"compound": "Cc1ccccc1-c1cncc(C2CCN(C3CCOCC3)CC2)n1", "effect": -27.51}
{"compound": "CCc1nnc2n1CCN(C(=O)C(C)Oc1cccc(C#N)c1)C2", "stereo": "centres unmarked", "effect": -30.7}
{"compound": "Cc1noc(C)c1CN1CCC2(CC1)NC(=O)CC2c1cnn(C)c1", "stereo": "centres unmarked", "effect": -7.305}
{"compound": "CN(CC(=O)Nc1cccc(F)c1)Cc1nc(N)nc(N(C)C)n1", "effect": -12.03}
{"compound": "O=C(c1cccnc1Oc1ccccc1)N1CCCn2ncnc21", "effect": -34.39}
{"compound": "O=c1c(CN2CC3CCCN3C[C@@H]2CCO)coc2ccc(Cl)cc12", "stereo": "some centres unmarked", "effect": -20.01}
{"compound": "COC1CCCN(C(=O)NCC(F)F)C1", "stereo": "centres unmarked", "effect": -28.75}
{"compound": "COc1ccc(CN2CCCC3(CCN(c4ccsc4)C3=O)C2)cc1.O=C(O)C(F)(F)F", "stereo": "centres unmarked", "effect": 4.979}
{"compound": "Cc1nn(CCC#N)c(C)c1CCC(=O)N(C)C.Cl", "effect": -42.75}
{"compound": "CC1CCc2n[nH]c(C(=O)NCCc3ccco3)c2C1", "stereo": "centres unmarked", "effect": 6.715}
{"compound": "c1cncc(NCCNC2CCCNC2)c1", "stereo": "centres unmarked", "effect": -18.78}
{"compound": "CCn1cc(Cl)c(C(=O)NCCOC)n1", "effect": -26.01}
{"compound": "COCCn1ccnc1C1CCCN(C(=O)c2ccccc2C#N)C1", "stereo": "centres unmarked", "effect": -36.46}
{"compound": "CCc1cc(C(F)(F)F)c2c(C)nn(CC(=O)O)c2n1", "effect": -10.09}
{"compound": "Cc1cnn(C2CCCN(C(=O)c3sccc3-n3cnnn3)C2)c1", "stereo": "centres unmarked", "effect": -18.77}
{"compound": "Cc1noc(C)c1CCC(=O)N1CCN(CCn2cccn2)CC1", "effect": -47.81}
{"compound": "Cc1cc(=O)n2ncnc2n1CC(O)COCc1ccccc1Cl", "stereo": "centres unmarked", "effect": -53.66}
{"compound": "Cc1ccc(C(=O)Nc2cn[nH]c2)cc1", "effect": 7.586}
{"compound": "CN(C)C(=O)CNS(=O)(=O)c1cc(Br)ccc1F", "effect": 7.92}
{"compound": "CN1CCC(N(C)C(=O)c2cnn(-c3ccccc3Br)c2N)CC1", "effect": 10.83}
{"compound": "Cc1noc(C)c1CNC[C@@]1(COc2cccnc2)C[C@@H](O)[C@@H](O)C1.Cl.Cl", "effect": -7.08}
{"compound": "COc1ccc(CN2Cc3cnn(C)c3C(COCC3CC3)C2)cc1", "stereo": "centres unmarked", "effect": -21.05}
{"compound": "CN(C)C(=O)c1cc2ncc(C(=O)NC3CCCC3)cc2n1C", "effect": -7.555}
{"compound": "CSCCC(NC(N)=O)C(=O)NCc1ccc(-n2cccn2)cc1", "stereo": "centres unmarked", "effect": -67.44}
{"compound": "CC(C)Oc1ccc(CN2CCCC(N3CCCC3)C2)cc1CO", "stereo": "centres unmarked", "effect": -33.19}
{"compound": "COCCN1CCN(Cc2cccc(C(=O)N(C)C)c2)CC1", "effect": 13.97}
{"compound": "O=C(O)C(F)(F)F.c1ccc(CN2Cc3nccn3CC(Cn3cncn3)C2)nc1", "stereo": "centres unmarked", "effect": -12.52}
{"compound": "COc1ncc(C2(O)CCN(Cc3ccc(F)c(F)c3)CC2)c(OC)n1.Cl", "effect": -17.16}
{"compound": "CN(C)c1cnn(Cc2nc3ccccc3n2C)c(=O)c1", "effect": -19.46}
{"compound": "COc1ccccc1NC(=O)CCNC(=O)c1ccoc1", "effect": -15.64}
{"compound": "CC(C)c1nc(CNC2CCN(C(=O)OC(C)(C)C)CC2)cs1", "effect": 10.54}
{"compound": "Cc1nnc(C(C)N2CCN(Cc3ccc(C(F)(F)F)cc3)CC2)o1", "stereo": "centres unmarked", "effect": -9.916}
{"compound": "O=C(O)C(F)(F)F.[H][C@@]12CN(CC3CCCC3)CCO[C@]1([H])CN(C(=O)c1cnc(C)cn1)C2", "effect": -38.12}
{"compound": "COC(=O)COc1cc(NCc2c(C)noc2C)c(Cl)cc1C", "effect": -7.486}
{"compound": "[H][C@]12CN(Cc3ccco3)CCN1C[C@H](c1ccccc1)[C@H]2C(=O)NC", "effect": -27.66}
{"compound": "O=C(NCCC(O)c1ccoc1)Nc1cccs1", "stereo": "centres unmarked", "effect": -27.41}
{"compound": "Cn1nnc2c1CCN(S(C)(=O)=O)C2COCc1ccccc1", "stereo": "centres unmarked", "effect": -19.61}
{"compound": "CN(C)Cc1cnc2n1CCN(C(=O)C1CC=CC1)CC2", "effect": -417.8}
{"compound": "Fc1cc(Cl)cnc1N1CCCC(c2nccn2Cc2ccncc2)C1", "stereo": "centres unmarked", "effect": -58.79}
{"compound": "Cc1cccnc1[C@H](C)NC(=O)Cc1cc2c(cc1Cl)OCCO2", "effect": -23.92}
{"compound": "O=C(NCCCN1CCCCCC1=O)c1n[nH]c(=O)c2ccccc12", "effect": 13.05}

Some entries from above, unchanged:

compound,effect
Cc1nnc(C(C)N2CCN(Cc3ccc(C(F)(F)F)cc3)CC2)o1 (centres unmarked),-9.916
Cc1noc(C)c1CNC[C@@]1(COc2cccnc2)C[C@@H](O)[C@@H](O)C1.Cl.Cl,-7.08
Cc1nn(CCC#N)c(C)c1CCC(=O)N(C)C.Cl,-42.75